Laboratory results: the supplement of paper PMC10338343
± gives the standard deviation. Only a part is listed here, and it is no random draw. The uncertainty is large for many entries. Some of the results follow.

Experiments:
[1] = tested on: MIWI (PIWIL1) piRISC loaded with L1MC piRNA (30 nt); experiment: pre-steady-state target cleavage rate (min^-1); higher = faster piRNA-guided slicing of the target; details: guide: L1MC piRNA 5'p-UAACUAAAUACUAUGCAAGCUGUAGGUCCU;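 note: 1 nM active piRISC with 0.1 nM target library at 33 °C single turnover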
Method in brief: (§1)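 Active affinity-purified piRISC carrying one synthetic guide (1 nM) was mixed with a transcribed, DNA-blocked target RNA library […] in HEPES–potassium acetate buffer at 33 °C for 0–8 or 0–960 min, with or without 500 nM GTSF1 partner protein. Uncleaved targets were then sequenced and normalised to depth and to weakly complementary targets. Three trials were pooled, and k3 was capped at 0.0001 min^-1. A burst-and-steady-state fit was applied to obtain the pre-steady-state cleavage rate.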

[2] = tested on: EfPiwi piRISC loaded with L1MC piRNA (26 nt); experiment: pre-steady-state target cleavage rate (min^-1); guide: L1MC piRNA 5'p-UAACUAAAUACUAUGCAAGCUGUAGG; MIWI and MILI are mouse PIWI proteins and EfPiwi is from a freshwater sponge; tags in brackets are library labels; higher = faster piRNA-guided slicing of the target
Method in brief: as §1

[3] = auxiliary factor: none (no GTSF1)
[4] = auxiliary factor: 500 nM Ephydatia muelleri Gtsf1
[5] = auxiliary factor: none (no Gtsf1)

Sequence	pre-steady-state target cleavage rate [1, 3]	pre-steady-state target cleavage rate [2, 4]	pre-steady-state target cleavage rate [2, 5]	pre-steady-state target cleavage rate ([1]; auxiliary factor: 500 nM mouse GTSF1)
UCCUGCUACAGCUUGCAUGAGUAUUUAGUUA	0.000811 ± 0.0093	0.00232 ± 0.0025	0.00032 ± 0.027	–
UCCUGGUACAGCUUGCCAUAGUAUUUAGUUA	0.0026 ± 0.0033	0.0045 ± 0.0021	0.00103 ± 0.0096	–
UCCUGGAUGUCGUUGCAUAGUAUUUGGUUA	0.00239 ± 0.0038	0.00273 ± 0.0046	0.000326 ± 0.029	–
UCCUGGAUGACCAUGCAUAGUAUUUAGUUA	0.00102 ± 0.0043	0.00488 ± 0.0028	0.000373 ± 0.032	–
UCCUGGAUGUCGAUGCAUUGUAUUUAGAUA	–	0.000144 ± 0.023	0.000373 ± 0.022	0.000216 ± 0.041
UCCUGGAUGUCGAAGCAUAGUAUUUAGUUA [g2:g16:cont:t1A]	0.00228 ± 0.0024	0.00352 ± 0.002	0.00105 ± 0.0072	–
UCCUGGAACAGCUUCGAUAGUAUUUAGUUA	0.00187 ± 0.0026	0.00251 ± 0.0023	0.00056 ± 0.011	–
UCCUGGAUGUGCUUGCAAGUAUUUAGUUA	0.00174 ± 0.004	0.00109 ± 0.0076	0.00049 ± 0.017	–
UCCUGGUACAGCUUCGUUAGUAUUUAGUUA	0.00223 ± 0.0033	0.000898 ± 0.0069	0.000546 ± 0.016	–
UCCUCCUACAGCUUGCAUUCUAUUUUCAAA	0.000212 ± 0.015	0.000718 ± 0.0063	< 0.0001	–
UCCUCCUACAGCUUGCAUUCAAUUUACAAA	0.000472 ± 0.01	0.00137 ± 0.0059	0.000243 ± 0.026	–
UCCUGGAUGUGGUAGCAUAGUAUUUAGUUA	0.002 ± 0.0054	0.00356 ± 0.0033	0.0041 ± 0.0053	–
UCCUGGAUGAGCUUGCAUAGUAUAAAGAAA	0.00133 ± 0.0053	0.000907 ± 0.0051	0.000602 ± 0.015	–
UCCUGGAUGUCGAUGCAAAGUAAUUAGUUA	0.000362 ± 0.012	0.000338 ± 0.0078	0.000229 ± 0.034	–
UCCUGGAUGAGCUUCCAUAGUAUUUAGUUA	0.00169 ± 0.0034	0.00346 ± 0.0018	0.000352 ± 0.028	–
UCCUGGAUCAGGAAGCAUAGUAUUUUCAAA	0.000203 ± 0.014	0.000279 ± 0.011	< 0.0001	–
UCCUGGAUGAGCUUGCAUACAUAAAUCAAA [g12:g21:cont:t1A]	0.000152 ± 0.023	0.000175 ± 0.022	0.000496 ± 0.022	–
UCCUGGUACAGCUUGCAUACAAUUUAGUUA	0.00258 ± 0.0027	0.00099 ± 0.0051	0.000306 ± 0.024	–
UCCUGCUACAGCAAGCAUAGUAUUUAGUAA	0.00118 ± 0.005	0.00213 ± 0.0025	0.000182 ± 0.018	–

Sequence	pre-steady-state target cleavage rate [1, 3]	pre-steady-state target cleavage rate [2, 4]	pre-steady-state target cleavage rate [2, 5]	pre-steady-state target cleavage rate ([1]; auxiliary factor: 500 nM mouse GTSF1)
UCCUGGAUGUCCAAGCAUAGUAUUUAGUUA	0.00164 ± 0.005	0.00166 ± 0.0034	0.000342 ± 0.019	–
UCCUGGUACACGAUGCAUAGUAUUUAGUUA	0.00221 ± 0.0028	0.00161 ± 0.0035	0.000302 ± 0.022	–
UCCUGGAUGUGCAUGCAUAGUAAUUAGUUA	0.00265 ± 0.0028	0.00135 ± 0.0031	0.000802 ± 0.01	–
UCCUGGAACAGGAUGCAUAGUAUUUUCAAA	0.000604 ± 0.0091	0.00106 ± 0.0027	0.00031 ± 0.018	–
UCCUGGAUGUCGAUGCAUACAUAAAUCAAA [g12:g17:cont:t1A]	0.000111 ± 0.033	0.000183 ± 0.015	0.000373 ± 0.019	–
UCCUGGAUGUCGUUGCAAAGUAUUUAGUUA	0.00196 ± 0.0032	0.00141 ± 0.0053	0.00013 ± 0.072	–
UCCUGGAUGUCCUACGAUAGUAUUUAGUUA	0.00093 ± 0.0062	0.000315 ± 0.009	0.000318 ± 0.021	–
UCCUGGAUGUCGAUGCAUAGUAAUUAGUUA	0.00107 ± 0.0068	0.00212 ± 0.0026	0.000391 ± 0.014	–
UCCUGGAUGAGCUUGGUUAGUAUUUAGUAA	0.00269 ± 0.0034	0.000691 ± 0.0063	0.000621 ± 0.013	–
UCCUGGAUGUGCUUGCAUAGUGAUUUAGUUA	0.00282 ± 0.0037	0.00141 ± 0.0078	0.000426 ± 0.02	–
UCCUGGAUGUCGAACCUUAGUAUUUAGAUA	0.000115 ± 0.018	0.000388 ± 0.013	0.000202 ± 0.027	–
UCCUGGAUCACGAUGCAUAGUAUUUACAAA	0.00115 ± 0.0074	0.00224 ± 0.0047	0.000305 ± 0.028	–
UCCUGGAACACGAUGCAUAGUAUUUAGUAA	0.00259 ± 0.004	0.00251 ± 0.0027	0.000196 ± 0.04	–
UCCUGGAUGACCUAGCAUAGUAUUUAGUUA	0.00132 ± 0.005	0.0121 ± 0.0072	0.000597 ± 0.012	–
UCCUGGAUGUCGAAGCAUAGGAUUUAGUUA	0.000554 ± 0.0064	0.000147 ± 0.024	< 0.0001	–
UCCUGGAUGUCGAUGCAUAGUAUUAUCAAA [g7:g17:cont:t1A]	0.000601 ± 0.0088	0.000775 ± 0.0076	0.000261 ± 0.018	–
UCCUGGAUGUCGAUGCAUAGUGUUUAGUUA	0.00184 ± 0.0036	0.00218 ± 0.0049	0.00112 ± 0.0098	–
UCCUGGUACAGCUUGCAUAGAAUUUUCAAA	0.000557 ± 0.0068	0.000658 ± 0.015	0.000114 ± 0.044	–

2 records picked at random from those above, as already listed:
Sequence	pre-steady-state target cleavage rate [1, 3]	pre-steady-state target cleavage rate [2, 4]	pre-steady-state target cleavage rate [2, 5]	pre-steady-state target cleavage rate ([1]; auxiliary factor: 500 nM mouse GTSF1)
UCCUGGAUGUCGAUGCAUAGUGUUUAGUUA	0.00184 ± 0.0036	0.00218 ± 0.0049	0.00112 ± 0.0098	–
UCCUGGAUGUGCUUGCAUAGUGAUUUAGUUA	0.00282 ± 0.0037	0.00141 ± 0.0078	0.000426 ± 0.02	–
